Laboratory results taken from paper PMC9923014, “BIN2 phosphorylates the Thr280 of CO to restrict its function in promoting Arabidopsis flowering” (Frontiers in Plant Science, 2023).
Like-named read-outs stand apart in the source and are kept apart here. Results are given in words; binding and its absence hold for the method and conditions named. For some assays here: Binding seen in cells or lysates may run through a third protein. Some entries that bind do so weakly or less than the wild type. For some assays here: Tags and fused reporters may be left off the sequences shown.

The chains behind the UniProt entries cited, without tags or fusion partners. Where a name states a change or a piece, a line headed by the entry shows the natural chain unless it says otherwise.
UniProt Q39057: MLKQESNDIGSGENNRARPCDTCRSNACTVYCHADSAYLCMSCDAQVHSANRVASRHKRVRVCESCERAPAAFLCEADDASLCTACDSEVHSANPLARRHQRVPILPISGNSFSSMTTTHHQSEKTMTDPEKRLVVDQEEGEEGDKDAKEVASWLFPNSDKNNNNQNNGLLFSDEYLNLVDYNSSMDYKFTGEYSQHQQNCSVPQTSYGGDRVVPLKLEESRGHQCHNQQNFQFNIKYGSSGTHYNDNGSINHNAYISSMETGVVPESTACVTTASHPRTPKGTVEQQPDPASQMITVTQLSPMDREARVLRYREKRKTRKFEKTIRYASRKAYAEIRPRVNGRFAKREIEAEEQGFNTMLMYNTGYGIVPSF
UniProt Q9SK03: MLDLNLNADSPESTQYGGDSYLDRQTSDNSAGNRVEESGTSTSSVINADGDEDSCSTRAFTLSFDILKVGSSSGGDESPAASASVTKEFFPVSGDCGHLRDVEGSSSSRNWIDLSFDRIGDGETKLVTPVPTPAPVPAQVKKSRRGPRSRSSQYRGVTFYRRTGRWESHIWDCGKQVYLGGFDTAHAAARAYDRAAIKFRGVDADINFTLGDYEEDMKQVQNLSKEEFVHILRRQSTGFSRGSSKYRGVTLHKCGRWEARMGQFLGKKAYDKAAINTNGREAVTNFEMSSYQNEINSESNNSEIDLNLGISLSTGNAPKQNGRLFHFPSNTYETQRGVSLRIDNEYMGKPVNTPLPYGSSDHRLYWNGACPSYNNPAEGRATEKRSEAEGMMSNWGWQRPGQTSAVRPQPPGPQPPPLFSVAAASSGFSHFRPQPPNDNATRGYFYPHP
UniProt Q39026: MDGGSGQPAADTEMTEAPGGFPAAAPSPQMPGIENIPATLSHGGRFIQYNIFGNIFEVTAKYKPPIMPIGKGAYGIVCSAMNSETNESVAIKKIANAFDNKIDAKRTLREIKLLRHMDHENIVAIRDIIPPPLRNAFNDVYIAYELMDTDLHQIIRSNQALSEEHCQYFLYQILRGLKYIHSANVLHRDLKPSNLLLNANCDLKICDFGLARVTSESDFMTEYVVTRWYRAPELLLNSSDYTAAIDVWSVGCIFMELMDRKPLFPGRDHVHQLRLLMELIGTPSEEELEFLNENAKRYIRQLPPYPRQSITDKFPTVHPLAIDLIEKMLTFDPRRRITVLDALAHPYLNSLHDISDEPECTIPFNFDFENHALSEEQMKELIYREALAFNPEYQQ

T1: NF-YC4 (NUCLEAR FACTOR Y subunit), yeast two-hybrid fusion (Arabidopsis thaliana) (UniProt Q9FMV5)
T1 sequence: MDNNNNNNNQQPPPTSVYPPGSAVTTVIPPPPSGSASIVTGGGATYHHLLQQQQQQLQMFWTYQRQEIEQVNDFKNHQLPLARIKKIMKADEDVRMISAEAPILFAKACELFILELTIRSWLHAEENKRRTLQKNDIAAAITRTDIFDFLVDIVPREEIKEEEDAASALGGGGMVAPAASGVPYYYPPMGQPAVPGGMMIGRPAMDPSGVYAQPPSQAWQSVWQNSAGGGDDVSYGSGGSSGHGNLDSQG

T2: BD-BIN2 (Arabidopsis thaliana) (UniProt Q39011)
T2 sequence: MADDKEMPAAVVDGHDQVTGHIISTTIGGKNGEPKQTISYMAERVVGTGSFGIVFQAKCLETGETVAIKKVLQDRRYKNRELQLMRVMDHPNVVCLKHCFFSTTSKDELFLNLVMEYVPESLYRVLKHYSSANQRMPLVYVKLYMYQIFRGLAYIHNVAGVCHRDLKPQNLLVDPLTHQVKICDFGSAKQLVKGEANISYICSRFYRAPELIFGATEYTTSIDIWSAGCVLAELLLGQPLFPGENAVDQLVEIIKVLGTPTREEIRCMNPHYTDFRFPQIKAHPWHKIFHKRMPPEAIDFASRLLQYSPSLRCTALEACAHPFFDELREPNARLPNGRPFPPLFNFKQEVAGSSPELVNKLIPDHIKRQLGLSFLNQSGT


Key:
[1] = target: nLUC-CO (CONSTANS fused with the amino-terminal part of luciferase) (Arabidopsis thaliana) (UniProt Q39057); experiment: split reporter; luciferase complementation imaging (LCI); nLUC and cLUC fusions co-infiltrated into N. benthamiana leaves by Agrobacterium GV3101; 12 h dark and 36 h light; LUC activity imaged
[2] = target: T1, NF-YC4 (NUCLEAR FACTOR Y subunit), yeast two-hybrid fusion (Arabidopsis thaliana); experiment: two-hybrid; pGADT7 and pGBKT7 fusions in AH109 yeast; growth on SD-L/W/H, 30°C, 3 to 4 days
[3] = target: TARGET OF EAT1 (TOE1), yeast two-hybrid fusion (Arabidopsis thaliana) (UniProt Q9SK03); experiment: as above
[4] = target: T2, BD-BIN2 (Arabidopsis thaliana); experiment: as above
[5] = target: nLUC-CO (CONSTANS fused with the amino-terminal part of luciferase) (Arabidopsis thaliana) (UniProt Q39057); experiment: split reporter; luciferase complementation imaging (LCI); nLUC and cLUC fusions co-infiltrated into N. benthamiana leaves by Agrobacterium GV3101; 12 h dark and 36 h light; LUC activity imaged; remark: listed apart in the source

Molecule | binding [1] | binding [2] | binding [3] | also measured
CO (yeast two-hybrid fusion tested with TOE1 and NF-YC4) (from UniProt Q39057 1-373) | – | binds | binds | –
AD-CO (from UniProt Q39057 1-373) | – | – | – | binding [4]: binds
cLUC-SK12 (enzyme, UniProt P43289 1-409) MASVGIEPSAAVRESTGNVTDADRLPEEMKDMKIQDDKEMEATIVNGNVTETGHIIVTTIGGRNGQPKQTISYMAERVVGHGSFGVVFQAKCLETGETVAIKKVLQDRRYKNRELQTMRLLDHPNVVSLKHCFFSTTEKDELYLNLVLEYVPETVHRVIKHYNKLNQRMPLVYVKLYTYQIFRSLSYIHRCIGVCHRDIKPQNLLVNPHTHQVKLCDFGSAKVLVKGEPNISYICSRYYRAPELIFGATEYTTAIDVWSAGCVLAELLLGQPLFPGESGVDQLVEIIKVLGTPTREEIKCMNPNYTEFKFPQIKAHPWHKIFHKRMPPEAVDLVSRLLQYSPNLRCAALDSLVHPFFDELRDPNARLPNGRFLPPLFNFKPHELKGVPVEMVAKLVPEHARKQCPWLSL | – | – | – | binding [5]: binds

The next lines start with results.

binding [1] | binding [2] | binding [3] | Molecule | also measured
binds | – | – | nLUC-CO (CONSTANS fused with the amino-terminal part of luciferase) (from UniProt Q39057 1-373) | –
no binding | – | – | cLUC-MPK6 (from UniProt Q39026 1-395) (enzyme) | –
– | binds | binds | CO^T280A (yeast two-hybrid fusion tested with TOE1 and NF-YC4) (from UniProt Q39057 1-373) | –
